Data on 27 compounds can be found in the supplement of paper PMC10727501.

The list shows a part of the results. This data set is noisy: repeats of one test often differ as much as different tests do.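 Free-swimming zebrafish larvae were scored for O-bend response probability to dark flashes (naive: first five; training: remaining flashes of four 60-flash blocks; test: later 60-flash block) and for turning toward alternating leftward/rightward LED motion (OMR). Six treated larvae were compared with sixty 0.1% DMSO controls; |SSMD|≥2 defined a hit.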

This test has as its system Danio rerio larvae (5 dpf, TLF). The experiment in a line: Prob-Naive (SSMD vs DMSO vehicle); higher = higher than vehicle (e.g. higher dark-flash O-bend response probability, or better optomotor performance). The conditions noted are these: 10 µM; pre-incubation: 30-90 min.
Turning to `CC[C@@H](C)[C@@H]1NC(=O)[C@@H](CCCN)NC(=O)[C@@H](NC(=O)[C@@H](NC(=O)[C@@H](CCC(=O)[O-])NC(=O)[C@H](CC(C)C)NC(=O)C2CN=C([C@@H](N)[C@@H](C)CC)S2)[C@H](C)CC)CCCCNC(=O)[C@H](CC(N)=O)NC(=O)[C@@H](CC(=O)[O-])NC(=O)[C@H](Cc2c[nH]cn2)NC(=O)[C@H](Cc2ccccc2)NC1=O.[Zn+2]` (some centres not stated) [Bacitracin zinc], the Prob-Naive was -0.203. Consider `CCc1cncnc1N1CCN(Cc2nc3cc(C(F)(F)F)ccc3[nH]2)CC1`, for which the Prob-Naive was 0.564.

For the compound `N[C@H](Cc1ccccc1)C(=O)O` [D-Phenylalanine], the Prob-Naive is -0.0763. With `C[C@@H]1CC(=O)NN=C1c1ccc(NN=C(C#N)C#N)cc1` [Levosimendan] the figure was -0.0234. As for `C#CCC(Cc1cnc2nc(N)nc(N)c2n1)c1ccc(C(=O)N[C@@H](CCC(=O)O)C(=O)O)cc1` (some centres not stated) [Pralatrexate], the Prob-Naive came to 0.0846. Compound `O=C(O)CCc1nc2ccccc2[nH]1` [Procodazole] registered a Prob-Naive of 0.271. With `C[C@H]1[C@H](O)O[C@H]2O[C@@]3(C)CC[C@H]4[C@@H](C)CC[C@@H]1[C@@]24OO3` [Dihydroartemisinin (DHA)] the figure was 0.0956; with `C[N+](C)(C)CCO.[Cl-]` [Choline Chloride], -0.571.

The compound `Cl.NC(CO)C(=O)NNCc1ccc(O)c(O)c1O` (configuration not stated) [Benserazide HCl] displayed a Prob-Naive of -0.226. As to `CC(C)N(CCCNC(=O)Nc1ccc(C(C)(C)C)cc1)C[C@H]1O[C@@H](n2cc(Br)c3c(N)ncnc32)[C@H](O)[C@@H]1O`, the Prob-Naive is 0.245. With `NC(N)=NCCN1CCCCCCC1.NC(N)=NCCN1CCCCCCC1.O=S(=O)(O)O` [Guanethidine Sulfate] the figure was 0.433; with `O=C(COc1ccc(C(=O)c2ccccc2)cc1)NC1CCN(Cc2ccccc2)CC1` [AdipoRon], -0.459; with `COC(=O)Nc1nc2ccc(Sc3ccccc3)cc2[nH]1` [Fenbendazole], -0.315. The result for `O=C(O)[C@H](Cc1c[nH]c2ccccc12)N1C(=O)c2ccccc2C1=O` reads 0.146; that for `COc1cc2c(Oc3ccc(NC(=O)C4(C(=O)Nc5ccc(F)cc5)CC4)cc3F)ccnc2cc1OCCCN1CCOCC1`, -0.186. As for `Cc1ccc([C@@H]2O[C@H](CO)[C@@H](O)[C@H](O)[C@H]2O)cc1Cc1ccc(-c2ccc(F)cc2)s1` [Canagliflozin], the Prob-Naive is 0.186. For `Cl.Cl.NC1(c2ccc(-c3nc4ccn5c(=O)[nH]nc5c4cc3-c3ccccc3)cc2)CCC1`, the Prob-Naive amounted to 0.568. With `CNC(=O)c1cc(COc2nnc(Nc3ccc(Cl)cc3)c3ccoc23)ccn1` [Telatinib] the figure was -0.397. Regarding `CCOC(=O)[C@H](CCc1ccccc1)N[C@@H](C)C(=O)N1[C@@H](C(=O)O)C[C@@H]2CCC[C@@H]21` [Ramipril], the Prob-Naive came out at 0.147.

In turn, `CN(C)CC/C=C1\c2ccccc2COc2ccc(CC(=O)O)cc21.Cl` [Olopatadine HCl] displayed a Prob-Naive of 0.644.

On to `O=C([O-])[C@H](CC(=O)N1C[C@H]2CCCC[C@H]2C1)Cc1ccccc1.O=C([O-])[C@H](CC(=O)N1C[C@H]2CCCC[C@H]2C1)Cc1ccccc1.[Ca+2]` [Mitiglinide calcium], for which the Prob-Naive was determined as 0.421. With `Nc1nc(N)c2nc(-c3ccccc3)c(N)nc2n1` [Triamterene] the figure was 0.464. With `CCn1c(-c2nonc2N)nc2c(C#CC(C)(C)O)ncc(OC[C@H]3CCCNC3)c21` the figure was 0.0475; with `O=C(O)CCc1nc(-c2ccccc2)c(-c2ccccc2)o1` [Oxaprozin], -1.44.

In turn, `Cc1c(OCC(F)(F)F)ccnc1CS(=O)c1nc2ccccc2[nH]1` (configuration not stated) [Lansoprazole] came in with a Prob-Naive of -0.414. The compound `CCCC(=O)O[C@@]1(C(=O)COC(C)=O)CC[C@H]2[C@@H]3C[C@H](F)C4=CC(=O)C=C[C@]4(C)[C@]3(F)[C@H](O)C[C@@]21C` [Difluprednate] gave a Prob-Naive of -0.167. The result for `COc1ccc(C2=NC(c3ccc(Cl)cc3)C(c3ccc(Cl)cc3)N2C(=O)N2CCNC(=O)C2)c(OC(C)C)c1` (configuration not stated) [Nutlin-3] reads 0.135.
